Here are results for 31 sequences from the supplement of paper PMC10338343.

± gives the standard deviation. The entries are a selection whose mix differs from that of the whole data set. Many entries were measured with a wide error. The list shows a part of the results.

The test system of assay [1] is MILI (PIWIL2) piRISC loaded with L1MC piRNA (26 nt). The experiment in a line: pre-steady-state target cleavage rate (min^-1); higher = faster piRNA-guided slicing of the target. The note with it: guide: L1MC piRNA 5'p-UAACUAAAUACUAUGCAAGCUGUAGG
A digest of the protocol:
(§1)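 With or without 500 nM GTSF1 partner protein, 1 nM active affinity-purified piRISC carrying one synthetic guide was mixed with 0.1 nM transcribed, DNA-blocked target RNA library in HEPES–potassium acetate buffer at 33 °C for 0–8 or 0–960 min. Uncleaved targets were sequenced and normalised to depth and to weakly complementary targets, three trials were pooled, and k3 was capped at 0.0001 min^-1. The pre-steady-state cleavage rate came from a burst-and-steady-state fit.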

Assay [2] deals with MIWI (PIWIL1) piRISC loaded with L1MC piRNA (30 nt). Described as above. The conditions noted are these: guide: L1MC piRNA 5'p-UAACUAAAUACUAUGCAAGCUGUAGGUCCU
Put shortly: as §1

Assay [3] relates to EfPiwi piRISC loaded with L1MC piRNA (26 nt). As to the kind of experiment: pre-steady-state target cleavage rate (min^-1); guide: L1MC piRNA 5'p-UAACUAAAUACUAUGCAAGCUGUAGG; MIWI and MILI are mouse PIWI proteins and EfPiwi is from a freshwater sponge; tags in brackets are library labels; higher = faster piRNA-guided slicing of the target. A digest of the protocol: as §1
[4] abbreviates: auxiliary factor: 500 nM mouse GTSF1.
The mark [5] stands for this setting: auxiliary factor: none (no GTSF1).
The mark [6] stands for this setting: auxiliary factor: 500 nM Ephydatia muelleri Gtsf1.

UCCUCCUACAGCUUGUAUAGUAUUUAGUUA: the “pre-steady-state target cleavage rate” value came to 0.305 ± 0.018 in assay [1] (setting [4]), 1.38 ± 0.042 in assay [2] (setting [4]), 0.0427 ± 0.008 in assay [2] (setting [5]) and 0.143 ± 0.033 in assay [3] (setting [6]).

As to UCCUGGAUGAGCUUGCAAUCUAUUUAGUAA, the “pre-steady-state target cleavage rate” value stood at 0.000182 ± 0.019 in assay [1] (setting [5]), 0.00113 ± 0.008 in assay [2] (setting [4]), 0.000805 ± 0.01 in assay [2] (setting [5]) and 0.000202 ± 0.019 in assay [3] (setting [6]).

In the case of UCCUGGAUGUCGUUGCAUAGUAUUUAUUA, the “pre-steady-state target cleavage rate” value in assay [1] (setting [5]) was 0.000398 ± 0.015; in assay [2] (setting [4]) it was 0.000316 ± 0.034; in assay [2] (setting [5]), 0.000715 ± 0.0089; in assay [3] (setting [6]), 0.000442 ± 0.0081.

“UCCUGGAACAGCUUGCAUAGUAUUUAGUUA [g2:g23:cont:t1A]”: the “pre-steady-state target cleavage rate” value in assay [1] (setting [4]) was determined as 0.297 ± 0.019; in assay [2] (setting [4]), 1.18 ± 0.034; in assay [2] (setting [5]), 0.0833 ± 0.014; in assay [3] (setting [6]) it was 0.0806 ± 0.018.

Take UCCUGGAUGUCCUUGCAUAGUAUAUAGUAA: the “pre-steady-state target cleavage rate” value amounted to 0.00119 ± 0.0053 in assay [1] (setting [5]), 0.00263 ± 0.0048 in assay [2] (setting [4]), 0.00206 ± 0.004 in assay [2] (setting [5]) and 0.00158 ± 0.0047 in assay [3] (setting [6]).

UCCUGGAUGACGUUGCAUAGUAUUUAGAAA: the “pre-steady-state target cleavage rate” value in assay [1] (setting [5]) turned out to be 0.000729 ± 0.0079; in assay [2] (setting [4]) it was 0.00202 ± 0.0052; in assay [2] (setting [5]) it was 0.000464 ± 0.0057; in assay [3] (setting [6]), 0.00198 ± 0.0046.

As for UCCUGGAUGUCGAACCAUAGUAUUUACGUUA, the “pre-steady-state target cleavage rate” value in assay [1] (setting [5]) is 0.000207 ± 0.027; in assay [2] (setting [4]) it was 0.000432 ± 0.013; in assay [2] (setting [5]), 0.000175 ± 0.036; in assay [3] (setting [6]) it was below 0.0001.

Take UCCUGGAUCAGCAACCAUAGUAUUUUCAAA: the “pre-steady-state target cleavage rate” value in assay [2] (setting [5]) was 0.00052 ± 0.0093; in assay [3] (auxiliary factor: none (no Gtsf1)) it was below 0.0001.

As for UCCUGCUACAGCUUGCAUAGAAUUUACAAA, the “pre-steady-state target cleavage rate” value in assay [1] (setting [5]) came to 0.00117 ± 0.0038; in assay [2] (setting [4]) it was 0.309 ± 0.065; in assay [2] (setting [5]), 0.00239 ± 0.0028; in assay [3] (setting [6]) it was 0.00254 ± 0.0035.

In the case of UCCUGGAUGUGCUUGCAUUGUAUUUAGUAA, the “pre-steady-state target cleavage rate” value in assay [1] (setting [5]) was found to be 0.00232 ± 0.0036; in assay [2] (setting [4]), 0.0234 ± 0.0059; in assay [2] (setting [5]), 0.00578 ± 0.0023; in assay [3] (setting [6]), 0.00319 ± 0.0044.

Regarding UCCUGGAUGAGCUUGCAUAGUAUUUUCUAA, the “pre-steady-state target cleavage rate” value in assay [1] (setting [5]) is 0.00046 ± 0.013; in assay [2] (setting [4]), 0.222 ± 0.052; in assay [2] (setting [5]) it was 0.00278 ± 0.0035; in assay [3] (setting [6]) it was 0.00391 ± 0.0026.

For UCCUCCUACAGCUUGGAUAGUAUUUUCAAA, the “pre-steady-state target cleavage rate” value in assay [2] (setting [5]) amounted to 0.000965 ± 0.0045; in assay [3] (setting [6]) it was 0.00297 ± 0.0022.

For the sequence UCCUCCUACAGCUUGCAUAGUAUUUUCAUA, the “pre-steady-state target cleavage rate” value stood at 0.00298 ± 0.0035 in assay [2] (setting [5]) and 0.00665 ± 0.0037 in assay [3] (setting [6]).

On to UCCUGGAACAGCUUGCAUUCUAUUUUCAAA, for which the “pre-steady-state target cleavage rate” value in assay [1] (setting [5]) is 0.00106 ± 0.0058; in assay [2] (setting [4]), 0.00289 ± 0.0061; in assay [2] (setting [5]), 0.000824 ± 0.0067; in assay [3] (setting [6]) it was 0.000398 ± 0.0063.

For the sequence UCCUGGAUCACGUUGCAUAGUAUUUUCAAA, the “pre-steady-state target cleavage rate” value in assay [1] (setting [5]) is 0.00155 ± 0.0045; in assay [2] (setting [4]), 0.0017 ± 0.008; in assay [2] (setting [5]), 0.00162 ± 0.0061; in assay [3] (setting [6]), 0.000233 ± 0.019.

Consider “UCCUGGAUGUCGAUGCAUAGUAAAAUCAAA [g9:g17:cont:t1A]”, for which the “pre-steady-state target cleavage rate” value was 0.000456 ± 0.012 in assay [2] (setting [5]) and 0.000176 ± 0.02 in assay [3] (setting [6]).

For UCCUGGUACUCGUUGCAUAGUAUUUACAAA, the “pre-steady-state target cleavage rate” value was determined as 0.00087 ± 0.011 in assay [1] (setting [5]), 0.00201 ± 0.0094 in assay [2] (setting [4]), 0.000831 ± 0.011 in assay [2] (setting [5]) and 0.00137 ± 0.0057 in assay [3] (setting [6]).

As to UCCUGGAUGUCCUUCCAUAGUAUUUAGUUA, the “pre-steady-state target cleavage rate” value came out at 0.00155 ± 0.0037 in assay [1] (setting [5]), 0.00347 ± 0.0042 in assay [2] (setting [4]), 0.000585 ± 0.011 in assay [2] (setting [5]) and 0.001 ± 0.0033 in assay [3] (setting [6]).

Consider UCCUGGAUCAGCUUCGUUAGUAUUUACAAA, for which the “pre-steady-state target cleavage rate” value came to 0.000569 ± 0.013 in assay [1] (setting [5]), 0.000833 ± 0.012 in assay [2] (setting [4]), 0.000888 ± 0.0076 in assay [2] (setting [5]) and 0.000359 ± 0.0093 in assay [3] (setting [6]).

Regarding UCCUGCACAGCUUGCAUAGUAUUUAGUUA, the “pre-steady-state target cleavage rate” value in assay [1] (setting [4]) stood at 0.317 ± 0.018; in assay [2] (setting [4]), 1.34 ± 0.073; in assay [2] (setting [5]), 0.0804 ± 0.018; in assay [3] (setting [6]), 0.0745 ± 0.016.

With UCCUCCUACAGCUUGCAUACUAUUUACUUA, the “pre-steady-state target cleavage rate” value in assay [1] (setting [5]) was 0.00122 ± 0.0047; in assay [2] (setting [4]), 0.197 ± 0.023; in assay [2] (setting [5]), 0.018 ± 0.0033; in assay [3] (setting [6]), 0.00621 ± 0.0047.

Regarding UCCUGGUACAGGUUGCAUAGUAUUUACUUA, the “pre-steady-state target cleavage rate” value came to 0.00245 ± 0.0058 in assay [1] (setting [5]), 0.125 ± 0.035 in assay [2] (setting [4]), 0.00733 ± 0.003 in assay [2] (setting [5]) and 0.000428 ± 0.015 in assay [3] (setting [6]).

For UCCUGGAACAGCUUGCAUAUGUAUUUAGUUA, the “pre-steady-state target cleavage rate” value stood at 0.00139 ± 0.0042 in assay [1] (setting [5]), 0.00369 ± 0.0037 in assay [2] (setting [4]), 0.00108 ± 0.0054 in assay [2] (setting [5]) and 0.00127 ± 0.003 in assay [3] (setting [6]).

Take UCCUGCUACAGCUUGCAUAGAUAUUUAGUUA: the “pre-steady-state target cleavage rate” value in assay [2] (setting [5]) is 0.00142 ± 0.0066; in assay [3] (setting [6]), 0.00181 ± 0.0041.

UCCUGCUUACAGCUUGCAUAGUAUUUAGUUA: the “pre-steady-state target cleavage rate” value is 0.451 ± 0.043 in assay [1] (setting [4]), 1.48 ± 0.13 in assay [2] (setting [4]), 0.0826 ± 0.02 in assay [2] (setting [5]) and 0.0638 ± 0.015 in assay [3] (setting [6]).

As to UCCUGGAUGUCGAACCAUUCUAUUUAGUUA, the “pre-steady-state target cleavage rate” value in assay [1] (setting [5]) was below 0.0001; in assay [2] (setting [4]), 0.000502 ± 0.01; in assay [2] (setting [5]), 0.000328 ± 0.015; in assay [3] (setting [6]) it was 0.000103 ± 0.023.

As to UCCUGGAUGUCGAACCAUAGUAUUUAGUGUA, the “pre-steady-state target cleavage rate” value in assay [2] (setting [5]) came out at 0.000347 ± 0.017; in assay [3] (setting [6]), 0.000189 ± 0.019.

Regarding UCCUCGUACAGCUUGCAUAGUAUUUAGUUA, the “pre-steady-state target cleavage rate” value is 0.32 ± 0.015 in assay [1] (setting [4]), 1.46 ± 0.043 in assay [2] (setting [4]), 0.0602 ± 0.01 in assay [2] (setting [5]) and 0.163 ± 0.036 in assay [3] (setting [6]).

Turning to UCCUGGAUGUCGUACCAUAGUAUUUAGUUA, the “pre-steady-state target cleavage rate” value in assay [1] (setting [5]) came to 0.000512 ± 0.01; in assay [2] (setting [4]), 0.00228 ± 0.0036; in assay [2] (setting [5]), 0.000459 ± 0.015; in assay [3] (setting [6]), 0.000255 ± 0.015.

UCCUGGAUGUCGUUGCUUAGUAUUUAGAUA: the “pre-steady-state target cleavage rate” value amounted to 0.00177 ± 0.0041 in assay [1] (setting [5]), 0.000174 ± 0.035 in assay [2] (setting [4]), 0.000625 ± 0.0094 in assay [2] (setting [5]) and 0.000338 ± 0.0097 in assay [3] (setting [6]).

As to UCCUGGAUGUCCUUGCAAUCUAUUUAGUUA, the “pre-steady-state target cleavage rate” value in assay [1] (setting [5]) stood at 0.00143 ± 0.0037; in assay [2] (setting [4]) it was 0.00205 ± 0.0055; in assay [2] (setting [5]), 0.000895 ± 0.0056; in assay [3] (setting [6]), 0.000784 ± 0.0089.
